Source: PMC4617701
Results are given in words; binding and its absence hold for the method and conditions named. In cells and extracts the contact can be indirect. Here binding means that the protein was enriched with, or labelled near, the bait; the list need not be complete.

The chains behind the UniProt entries cited, without tags or fusion partners. Where a name states a change or a piece, a line headed by the entry shows the natural chain unless it says otherwise. A line that says so, or that is headed by a name, gives the form on record, which may keep a tag or linker.
Strep/FLAG-tagged (SF-TAP) NINL isoform B (Q9Y2I6, form named): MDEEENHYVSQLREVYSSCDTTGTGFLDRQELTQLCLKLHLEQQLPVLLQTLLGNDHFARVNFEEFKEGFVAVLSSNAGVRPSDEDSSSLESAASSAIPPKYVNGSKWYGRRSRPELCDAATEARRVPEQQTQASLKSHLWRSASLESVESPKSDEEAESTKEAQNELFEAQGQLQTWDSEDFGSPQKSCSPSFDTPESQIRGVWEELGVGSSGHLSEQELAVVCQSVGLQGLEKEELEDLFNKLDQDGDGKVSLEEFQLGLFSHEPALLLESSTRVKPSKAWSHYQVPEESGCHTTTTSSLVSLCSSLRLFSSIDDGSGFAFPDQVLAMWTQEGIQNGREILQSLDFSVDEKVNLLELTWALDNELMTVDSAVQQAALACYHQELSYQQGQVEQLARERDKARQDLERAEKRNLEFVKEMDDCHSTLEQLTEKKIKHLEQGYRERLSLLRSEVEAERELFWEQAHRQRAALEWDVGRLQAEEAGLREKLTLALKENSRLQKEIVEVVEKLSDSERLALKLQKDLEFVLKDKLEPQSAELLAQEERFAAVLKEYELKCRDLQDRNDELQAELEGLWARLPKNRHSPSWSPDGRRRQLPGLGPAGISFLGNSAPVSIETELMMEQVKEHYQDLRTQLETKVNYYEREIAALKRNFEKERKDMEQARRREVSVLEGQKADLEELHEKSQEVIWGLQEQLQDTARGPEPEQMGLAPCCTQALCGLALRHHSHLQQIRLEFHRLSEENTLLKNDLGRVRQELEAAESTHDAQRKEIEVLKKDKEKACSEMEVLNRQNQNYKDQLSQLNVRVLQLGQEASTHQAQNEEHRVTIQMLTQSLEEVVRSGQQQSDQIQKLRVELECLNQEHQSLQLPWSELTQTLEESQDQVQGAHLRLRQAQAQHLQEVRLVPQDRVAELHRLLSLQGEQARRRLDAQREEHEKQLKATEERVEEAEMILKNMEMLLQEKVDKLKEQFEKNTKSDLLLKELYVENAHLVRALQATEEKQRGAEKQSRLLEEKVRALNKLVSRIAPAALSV
UniProt Q13561: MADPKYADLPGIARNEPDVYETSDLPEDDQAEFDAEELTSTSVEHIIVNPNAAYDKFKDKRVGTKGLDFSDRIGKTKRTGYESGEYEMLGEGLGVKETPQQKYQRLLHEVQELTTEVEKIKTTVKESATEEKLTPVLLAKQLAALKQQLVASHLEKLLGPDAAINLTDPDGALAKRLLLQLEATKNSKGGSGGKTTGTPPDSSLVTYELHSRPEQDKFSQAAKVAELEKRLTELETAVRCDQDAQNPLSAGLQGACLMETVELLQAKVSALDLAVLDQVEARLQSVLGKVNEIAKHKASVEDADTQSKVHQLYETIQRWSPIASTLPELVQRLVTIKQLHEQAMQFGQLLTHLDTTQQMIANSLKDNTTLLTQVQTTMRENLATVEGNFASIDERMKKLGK
UniProt O43237: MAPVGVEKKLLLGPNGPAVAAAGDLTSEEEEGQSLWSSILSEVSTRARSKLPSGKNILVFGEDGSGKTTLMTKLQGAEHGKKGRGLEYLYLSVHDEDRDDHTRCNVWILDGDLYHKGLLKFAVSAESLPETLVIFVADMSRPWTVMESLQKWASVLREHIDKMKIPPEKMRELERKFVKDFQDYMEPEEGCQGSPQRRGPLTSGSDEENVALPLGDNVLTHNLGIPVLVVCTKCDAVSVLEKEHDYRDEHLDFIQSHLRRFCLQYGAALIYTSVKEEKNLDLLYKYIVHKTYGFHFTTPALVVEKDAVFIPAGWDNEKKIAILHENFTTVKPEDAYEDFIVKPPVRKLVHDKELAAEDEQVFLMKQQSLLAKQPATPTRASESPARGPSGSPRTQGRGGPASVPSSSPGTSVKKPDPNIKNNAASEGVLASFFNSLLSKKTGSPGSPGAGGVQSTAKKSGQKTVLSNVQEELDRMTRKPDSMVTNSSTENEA
UniProt Q13557: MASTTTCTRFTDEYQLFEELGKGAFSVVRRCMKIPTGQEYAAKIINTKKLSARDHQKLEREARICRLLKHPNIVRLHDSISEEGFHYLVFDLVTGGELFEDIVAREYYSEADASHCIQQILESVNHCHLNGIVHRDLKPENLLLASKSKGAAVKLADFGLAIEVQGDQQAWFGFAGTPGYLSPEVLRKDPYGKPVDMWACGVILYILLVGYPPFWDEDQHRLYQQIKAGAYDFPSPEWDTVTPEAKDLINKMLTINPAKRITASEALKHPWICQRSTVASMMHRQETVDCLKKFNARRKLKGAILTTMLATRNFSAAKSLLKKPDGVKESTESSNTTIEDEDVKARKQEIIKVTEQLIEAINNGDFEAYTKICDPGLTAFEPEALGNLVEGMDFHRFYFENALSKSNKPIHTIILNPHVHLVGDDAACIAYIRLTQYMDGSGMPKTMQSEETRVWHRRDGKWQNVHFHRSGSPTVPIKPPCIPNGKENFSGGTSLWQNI
UniProt Q9NZ32: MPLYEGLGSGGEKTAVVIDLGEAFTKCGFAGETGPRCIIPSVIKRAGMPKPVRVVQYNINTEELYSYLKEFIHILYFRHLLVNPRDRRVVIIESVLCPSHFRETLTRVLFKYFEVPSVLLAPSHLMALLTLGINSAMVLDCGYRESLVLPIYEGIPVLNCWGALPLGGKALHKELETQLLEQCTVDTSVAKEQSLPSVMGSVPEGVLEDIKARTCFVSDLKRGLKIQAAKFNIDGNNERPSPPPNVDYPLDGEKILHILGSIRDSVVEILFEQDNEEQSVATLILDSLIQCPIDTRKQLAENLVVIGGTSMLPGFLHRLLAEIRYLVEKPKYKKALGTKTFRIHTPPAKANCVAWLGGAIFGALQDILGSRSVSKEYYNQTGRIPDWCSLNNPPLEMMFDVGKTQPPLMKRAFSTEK
UniProt P42025: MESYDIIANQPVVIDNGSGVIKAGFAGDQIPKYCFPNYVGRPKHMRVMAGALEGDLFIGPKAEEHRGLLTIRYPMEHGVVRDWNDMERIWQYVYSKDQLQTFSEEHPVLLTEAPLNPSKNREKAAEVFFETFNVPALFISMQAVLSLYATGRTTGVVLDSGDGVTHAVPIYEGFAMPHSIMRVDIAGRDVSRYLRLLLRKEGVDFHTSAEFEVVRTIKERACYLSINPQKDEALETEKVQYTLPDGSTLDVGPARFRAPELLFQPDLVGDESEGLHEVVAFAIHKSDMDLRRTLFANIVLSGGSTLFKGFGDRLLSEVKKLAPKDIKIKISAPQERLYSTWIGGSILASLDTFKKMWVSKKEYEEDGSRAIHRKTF
UniProt Q9NP97: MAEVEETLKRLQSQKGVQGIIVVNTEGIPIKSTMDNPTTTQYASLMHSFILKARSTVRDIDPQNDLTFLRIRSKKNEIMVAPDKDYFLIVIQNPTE
UniProt Q13555: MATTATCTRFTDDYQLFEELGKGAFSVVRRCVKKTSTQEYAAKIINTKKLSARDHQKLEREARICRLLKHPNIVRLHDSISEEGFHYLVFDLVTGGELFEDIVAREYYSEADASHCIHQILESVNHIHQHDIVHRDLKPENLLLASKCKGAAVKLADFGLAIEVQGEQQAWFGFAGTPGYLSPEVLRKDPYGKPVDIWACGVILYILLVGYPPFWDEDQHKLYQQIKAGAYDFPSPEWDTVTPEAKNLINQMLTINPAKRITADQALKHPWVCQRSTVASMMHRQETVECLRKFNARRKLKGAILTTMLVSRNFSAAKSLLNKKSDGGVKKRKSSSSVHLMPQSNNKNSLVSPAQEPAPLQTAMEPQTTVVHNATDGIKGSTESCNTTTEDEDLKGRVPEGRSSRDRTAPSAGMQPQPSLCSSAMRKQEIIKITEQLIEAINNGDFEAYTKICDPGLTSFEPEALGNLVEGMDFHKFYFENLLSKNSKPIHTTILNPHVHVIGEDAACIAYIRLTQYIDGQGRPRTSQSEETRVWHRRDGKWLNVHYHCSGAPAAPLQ
UniProt Q9Y6G9: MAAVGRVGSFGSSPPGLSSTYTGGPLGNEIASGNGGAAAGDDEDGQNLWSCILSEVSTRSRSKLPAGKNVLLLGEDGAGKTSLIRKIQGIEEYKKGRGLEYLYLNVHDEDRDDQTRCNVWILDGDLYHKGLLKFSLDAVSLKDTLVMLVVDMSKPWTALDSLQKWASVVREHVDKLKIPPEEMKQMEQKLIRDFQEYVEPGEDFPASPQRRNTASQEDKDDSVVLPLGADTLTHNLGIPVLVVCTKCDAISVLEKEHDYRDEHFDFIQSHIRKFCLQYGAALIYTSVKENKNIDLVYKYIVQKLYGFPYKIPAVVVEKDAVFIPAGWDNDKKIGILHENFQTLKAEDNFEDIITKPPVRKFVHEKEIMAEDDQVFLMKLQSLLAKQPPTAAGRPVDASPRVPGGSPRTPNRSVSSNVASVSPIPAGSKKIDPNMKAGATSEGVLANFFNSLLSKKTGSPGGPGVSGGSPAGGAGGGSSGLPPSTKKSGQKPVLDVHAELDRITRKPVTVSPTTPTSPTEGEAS
UniProt O00399: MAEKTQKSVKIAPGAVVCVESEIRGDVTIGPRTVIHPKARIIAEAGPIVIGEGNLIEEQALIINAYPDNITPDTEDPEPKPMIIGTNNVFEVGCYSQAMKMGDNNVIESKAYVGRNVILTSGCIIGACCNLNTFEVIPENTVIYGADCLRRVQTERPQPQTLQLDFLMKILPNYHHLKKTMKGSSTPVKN
UniProt Q14203: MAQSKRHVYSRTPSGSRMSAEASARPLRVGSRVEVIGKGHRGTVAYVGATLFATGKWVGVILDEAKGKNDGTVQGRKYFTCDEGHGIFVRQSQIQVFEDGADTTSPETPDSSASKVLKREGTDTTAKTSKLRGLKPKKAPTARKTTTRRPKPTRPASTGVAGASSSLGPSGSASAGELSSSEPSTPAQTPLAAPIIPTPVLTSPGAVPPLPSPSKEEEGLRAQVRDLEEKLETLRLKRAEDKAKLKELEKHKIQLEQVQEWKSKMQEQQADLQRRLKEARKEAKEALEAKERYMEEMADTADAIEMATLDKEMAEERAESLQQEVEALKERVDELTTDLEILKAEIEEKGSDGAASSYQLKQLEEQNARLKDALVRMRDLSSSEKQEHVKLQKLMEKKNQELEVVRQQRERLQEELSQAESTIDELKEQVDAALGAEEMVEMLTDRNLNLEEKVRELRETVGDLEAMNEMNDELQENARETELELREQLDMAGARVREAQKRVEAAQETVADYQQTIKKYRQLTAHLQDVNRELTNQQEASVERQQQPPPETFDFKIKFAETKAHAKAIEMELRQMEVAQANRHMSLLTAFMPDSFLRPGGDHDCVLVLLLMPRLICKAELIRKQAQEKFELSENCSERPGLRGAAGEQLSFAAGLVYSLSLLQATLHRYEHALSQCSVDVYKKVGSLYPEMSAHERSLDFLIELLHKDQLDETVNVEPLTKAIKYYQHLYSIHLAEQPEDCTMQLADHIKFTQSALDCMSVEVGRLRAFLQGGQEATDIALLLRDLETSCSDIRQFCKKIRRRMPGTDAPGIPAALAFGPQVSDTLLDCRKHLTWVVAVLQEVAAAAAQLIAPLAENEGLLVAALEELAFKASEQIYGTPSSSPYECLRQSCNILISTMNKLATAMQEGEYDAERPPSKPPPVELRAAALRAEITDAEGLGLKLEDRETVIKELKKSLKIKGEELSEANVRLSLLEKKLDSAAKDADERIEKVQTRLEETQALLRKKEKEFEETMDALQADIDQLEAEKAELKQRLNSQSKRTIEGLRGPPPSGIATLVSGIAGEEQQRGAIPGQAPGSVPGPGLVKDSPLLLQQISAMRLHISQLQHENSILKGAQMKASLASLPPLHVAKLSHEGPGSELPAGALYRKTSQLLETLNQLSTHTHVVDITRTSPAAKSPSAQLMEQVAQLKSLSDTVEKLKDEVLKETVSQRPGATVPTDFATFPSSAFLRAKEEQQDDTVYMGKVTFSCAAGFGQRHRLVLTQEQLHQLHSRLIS
UniProt O75935: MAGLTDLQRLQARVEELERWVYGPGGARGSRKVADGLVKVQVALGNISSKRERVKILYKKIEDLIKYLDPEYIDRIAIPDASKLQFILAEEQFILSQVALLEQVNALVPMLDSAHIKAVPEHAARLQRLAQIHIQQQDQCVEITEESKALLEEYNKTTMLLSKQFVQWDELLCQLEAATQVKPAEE
UniProt Q9UJW0: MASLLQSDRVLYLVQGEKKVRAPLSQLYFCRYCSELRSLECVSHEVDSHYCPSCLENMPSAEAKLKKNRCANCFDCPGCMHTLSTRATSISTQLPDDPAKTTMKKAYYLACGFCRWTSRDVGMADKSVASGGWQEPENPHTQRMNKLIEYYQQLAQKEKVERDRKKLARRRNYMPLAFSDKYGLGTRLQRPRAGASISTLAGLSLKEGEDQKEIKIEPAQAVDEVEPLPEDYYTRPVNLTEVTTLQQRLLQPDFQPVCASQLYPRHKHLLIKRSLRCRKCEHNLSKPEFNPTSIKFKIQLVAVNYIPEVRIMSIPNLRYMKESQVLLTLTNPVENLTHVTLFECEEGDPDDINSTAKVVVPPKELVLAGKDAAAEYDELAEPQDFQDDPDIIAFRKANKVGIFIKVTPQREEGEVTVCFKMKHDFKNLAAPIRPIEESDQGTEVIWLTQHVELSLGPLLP

What follows are substances tested against Strep/FLAG-tagged (SF-TAP) NINL isoform B (human) (UniProt Q9Y2I6) (assay: affinity purification with mass spectrometry; N-terminally SF-TAP-tagged NINL transiently expressed in HEK293T; one-step Strep-Tactin purification with SILAC, and tandem affinity purification (TAP); lysis in 0.5% Nonidet-P40 in TBS (30 mM Tris-HCl pH 7.4, 150 mM NaCl); LC-MS/MS).

Substance | binding
MICAL3 (Microtubule-associated Monooxygenase, Calponin and LIM domain containing 3 protein) (from UniProt Q7RTP6 1-2002) | binds
DYNC1H1 (from UniProt Q14204 1-4646) | binds
DCTN2 (from UniProt Q13561 1-401) | binds
DYNC1LI2 (from UniProt O43237 1-492) | binds
ARP1 (from UniProt P61163 1-376) | binds
CAMK2D (from UniProt Q13557 1-499) | binds
ARP10 (from UniProt Q9NZ32 1-417) | binds

The remaining lines, values ahead:

binding | Substance
binds | DYNCI2 (from UniProt Q13409 1-638)
binds | ARP1B (from UniProt P42025 1-376)
binds | DYNLRB1 (from UniProt Q9NP97 1-96)
binds | CAMK2G (from UniProt Q13555 1-558)
binds | DYNC1LI1 (from UniProt Q9Y6G9 1-523)
binds | CAMK2A (from UniProt Q9UQM7 1-478)
binds | DCTN6 (from UniProt O00399 1-190)
binds | CAPZB (from UniProt P47756 1-272)
binds | DCTN1 (from UniProt Q14203 1-1278)
binds | DCTN3 (from UniProt O75935 1-186)
binds | DCTN4 (from UniProt Q9UJW0 1-460)
